# Primary screen of a compound library

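Cell assay of Leishmania donovani living inside macrophages; the read-out is not stated. Compounds at 30 µM. The record gives no direction; compounds that gave an IC50 in retests scored well above the rest, so higher reads as stronger inhibition. About 69,000 compounds were tested under these conditions; 1.5% (about 1,000) showed 50% or more at least once.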

Values are the deposited “Percent Effect”, in %. The controls that fix the scale are not given in the record; negative values are as filed. This is an unselected part of the compounds tested. Two or more numbers in one place are separate tests of the same structure; such repeats can differ widely.

compound | percent effect
[H][C@@]12CCCO[C@]1([H])[C@H](NC(=O)CC1CC1)CN(Cc1nccs1)C2 | 17.94
O=C(N1CCCC1)N1CCOCC2(C1)CN(c1ccccc1)C(=O)CO2 (configuration not stated) | -17.97
O=C(Cn1cnc(NC(=O)CC2CCCC2)n1)NCc1ccccc1 | -11.52
CCC(=O)c1ccc(OCC(=O)N(C)C(C)c2ccon2)cc1 (configuration not stated) | 17.55
COc1ccccc1C1CCCN1CC(=O)N1CCC(C(N)=O)CC1 (configuration not stated) | 1.026
CN(C)CC1(O)CCN(C(=O)c2ccc(-n3cnnc3)cc2Cl)C1 (configuration not stated) | -13.48
c1cc2n(n1)CC(CNCc1ccc(OC3CCCCC3)nc1)CN2 (configuration not stated) | 44.13
[H][C@@]12CCN(C(=O)c3cnoc3C)C[C@@]1([H])O[C@@H](c1ccncn1)C2 | 8.311
CCN(C(=O)COc1nc(Cc2ccc(F)cc2)no1)C1CC1 | 22.88
Cn1nc(CC(C)(C)C)cc1NC(=O)c1ccc(CNC(N)=O)cc1 | -1.042
CC(CO)(CO)NC(=O)C1CCC(=O)N(Cc2ccc(Cl)cc2)C1 (configuration not stated) | -15.31
O=C(O)C(F)(F)F.O=C(O)C(F)(F)F.[H][C@@]12COC[C@]1(COCc1ccncc1)CN(c1cc(OC)ncn1)C2 | 20.68
Cc1cc(CN2C[C@@H](C)[C@@]3(CCN(C)C3=O)C2)oc1C.O=C(O)C(F)(F)F | 5.49
COc1ccc(C(CO)NC(=O)Nc2cccc(C#N)c2)cc1 (configuration not stated) | 17.13
CCOc1ccc(C(=O)CCC(=O)N(C)Cc2snnc2C)cc1C | 11.04
CN(Cc1nc(Cc2ccccc2F)no1)CC1Cc2ccccc2O1 (configuration not stated) | -81.48
CNC(=O)CNCC1(O)CCCN(Cc2ccc(F)c(F)c2)C1=O (configuration not stated) | -9.214
Cn1ncc(NC(=O)Cn2cc(-c3ccc(F)cn3)cn2)n1 | -1.97
O=C(c1ccncc1)N1CCCC1c1cccc(Br)c1 (configuration not stated) | -50.63
C/C(=C\c1ccco1)CN(C)C(C)c1ccccn1 (configuration not stated) | 72.9
CN1CCN(C2CCN(CCOc3ccc(Cl)cc3)CC2)C1=O | 16.9
CCc1ccc(O)c(C(=O)NC2CCN(S(=O)(=O)CC)CC2)c1 | 28.31
CC(C)c1nc2c(n1C)CCN(Cc1nc(-c3cccnc3)no1)C2 | 30.21
Cc1cnnn1Cc1nnn2c1CN(Cc1cccs1)CCC2.O=C(O)C(F)(F)F | 25.95
CCCS(=O)(=O)CC(=O)Nc1ccsc1 | -1.918
Cc1nccn1-c1ccc(=O)n(CCNC(=O)c2cccs2)n1 | -29.04
CC(=O)N1CCC(N2CCOC[C@H]2c2nc(-c3cccnc3)c[nH]2)CC1 | 16.44
COCc1nccc(C2CCCN(Cc3ccc(C#N)cc3F)C2)n1 (configuration not stated) | 17.26
CCC(CO)NCc1ccc(-c2ccc(Cl)cc2)o1.Cl (configuration not stated) | 78.06
COc1cc(NCc2ccccc2-n2cncn2)nc(N)n1 | -17.11
CC(=O)Nc1ccc(SCC(O)COCc2ccc3c(c2)OCO3)cc1 (configuration not stated) | -11.88
[H][C@]12CN(C)C(=O)[C@@]1([H])CN(C(=O)C1CCOC1)C2 (some centres not stated) | -34.41
CCCc1c(C(=O)NC2CCCC2)nnn1-c1ccc(OC)cc1 | 12.75
O=C1C(Nc2ccc3nccnc3n2)CCN1c1ccccc1 (configuration not stated) | -6.481
Cc1nn(C)c(C)c1C1CCCN1CCOc1ccccc1C#N (configuration not stated) | -5.115
CCCN1CCC(NN2CCN(C)CC2)CC1 | -16.34
Cc1cc(Cl)ccc1NCC(=O)Nc1cc(C(C)(C)C)no1 | 7.311
Cc1noc2ncc(C(=O)NCC3CCCOC3)cc12 (configuration not stated) | 29.24
CCn1cc(CN2CCCN(C(=O)CCN3CCCC3=O)CC2)cn1 | 3.356
CC(C)NC(=O)Nc1ccc(CNCc2cccc(C#N)c2)cc1 | 28.92
CC(NC(=O)CN1C=Nc2ccccc2S1(=O)=O)c1ccccc1 (configuration not stated) | 6.843
[H][C@@]12CCN(c3cc(OC)ncn3)CC[C@@]1([H])N(CC1CC1)CCO2 | 18.21
CNC(=O)NC(=O)C(NCc1ccccc1)c1ccccc1 (configuration not stated) | 38.82
Cc1csc(NC(=O)C(C)Oc2ccc3c(c2)OCO3)n1 (configuration not stated) | -63.62
CN1CCC(C)(CN(C)C(=O)c2ccc(CCC(C)(C)O)cc2)C1 (configuration not stated) | 5.086
O=C(O)C(F)(F)F.[H][C@@]12CCN(Cc3ccoc3)C[C@@]1([H])O[C@H](C(=O)NC(C)C)C2 | 11.62
Cc1cnn(CC2CN(CC(=O)N3CCc4ccccc43)CCO2)c1 (configuration not stated) | 26.31
Cc1csc(CCNC(=O)c2cc3c(nc2O)CCC(C)C3)n1 (configuration not stated) | -7.381
CN(C(=O)CSc1ncc[nH]1)C1CC1 | -10.15
CCN1CCCC1CN(CCN(C)C)S(=O)(=O)c1cccc(C#N)c1 (configuration not stated) | 48.76
COCCN(C)CCN1CC2(CCN(C3CCSC3)CC2)OC1=O (configuration not stated) | 12.79
O=C(CN1CCOC(Cn2cccn2)C1)Nc1nncs1 (configuration not stated) | 4.426
Cn1ccc(CN2CCC(OCCc3ccccc3)CC2)cc1=O | -48.08
Cc1ccc(F)c(CNc2ccn(CCC(N)=O)n2)c1 | 28.83
NC(=O)N1CCC2(CCN(C(=O)c3cccnc3)CC2)C1.O=C(O)C(F)(F)F | 21.09
Cc1ccc(-c2nc(CN3CCOCC3)no2)cc1N1CCNC1=O | -2.451
COCCN1CCCN(C(=O)NC(C)Cn2cccn2)CC1 (configuration not stated) | 13.82
Cc1cn2c(n1)CCC(NC(=O)c1cc(C(C)C)no1)C2 (configuration not stated) | 0.3794
Cc1nc(CN2Cc3nccn3CC(CN3CCCC3)C2)cs1.O=C(O)C(F)(F)F.O=C(O)C(F)(F)F (configuration not stated) | 25.1
Cc1nc(C)c(-c2ccn(CC(=O)Nc3cnn(C)n3)n2)s1 | -1.665
c1ccc(Cc2noc(CN(Cc3cccs3)CC3CCCO3)n2)cc1 (configuration not stated) | 2.964
O=C(O)C(F)(F)F.[H][C@@]12CCN(Cc3ccco3)C[C@]1([H])[C@@H](CNC(=O)c1ccsc1)OC2 | 35.73
Cn1cncc1CN1CCC2(CCCN2c2ncccn2)CC1.O=C(O)C(F)(F)F | 15.1
CCN(CC(=O)N(C)C)C(=O)c1ccc(-c2nc(C)cs2)cc1 | -16.68
O=C(O)C(F)(F)F.[H][C@@]12CCN(c3nnc(C)s3)C[C@@]1([H])O[C@@H](c1nc(C)no1)C2 | 7.673
N#Cc1c(F)cccc1N1CCCC(C(=O)Nc2nccs2)C1 (configuration not stated) | 38.57
[H][C@]12CC[C@](O)(c3cccc(OC)c3)[C@@]1([H])CN(C(=O)c1c[nH]nc1C)C2 | 20.12
Cc1c[nH]c(CN(C)C(=O)C2CC(=O)N(Cc3ccncc3)C2)n1 (configuration not stated) | 17.4
Cc1nc[nH]c1CN1CCc2nc3scc(C)c3c(=O)n2CC1.Cl | 13.4 & 12.74
COc1ccc(-c2noc(CN3CC(n4cccn4)C3)n2)c(OC)c1 | 21.14
CCN(CC)c1ncc(S(=O)(=O)c2cccc(C)c2)c(N)n1 | 3.845
CCc1ncnc2c1CCN(CC(=O)N(C)C)CC2.O=C(O)C(F)(F)F | 4.143
COC(=O)c1ccc2ccn(CC3CCCN(C)C3)c(=O)c2c1 (configuration not stated) | -23.54
CN(CC1CCOCC1)C1CCCN(c2ccccn2)C1 (configuration not stated) | 20.15
COC(=O)c1ccc2ccn(CC3COCCO3)c(=O)c2c1 (configuration not stated) | -2.755
CN(Cc1ccncc1)C1COC2(CCN(c3ncc(F)cn3)CC2)C1.O=C(O)C(F)(F)F.O=C(O)C(F)(F)F (configuration not stated) | 33.51
FC(F)(F)COCCN1CCN(c2ccc3nncn3n2)CC1 | 25.92
NC(=O)c1cc(C2CCCN(CCOc3ccc(F)cc3)C2)n[nH]1 (configuration not stated) | 21.86
CCn1nccc1CN(C)C(=O)Cn1nc(C)cc1C | 19.68
COc1cccc2c3c(c(=O)[nH]c12)CCC(C)(C)O3 | 11.13
CCN(C)S(=O)(=O)N[C@H]1CN(c2ccc(F)cn2)C[C@@H]1C(C)C | -18.62

Repeated from the top, 7 entries:

compound,percent effect
[H][C@@]12CCCO[C@]1([H])[C@H](NC(=O)CC1CC1)CN(Cc1nccs1)C2,17.94
O=C(N1CCCC1)N1CCOCC2(C1)CN(c1ccccc1)C(=O)CO2 (configuration not stated),-17.97
O=C(Cn1cnc(NC(=O)CC2CCCC2)n1)NCc1ccccc1,-11.52
CCC(=O)c1ccc(OCC(=O)N(C)C(C)c2ccon2)cc1 (configuration not stated),17.55
COc1ccccc1C1CCCN1CC(=O)N1CCC(C(N)=O)CC1 (configuration not stated),1.026
CN(C)CC1(O)CCN(C(=O)c2ccc(-n3cnnc3)cc2Cl)C1 (configuration not stated),-13.48
c1cc2n(n1)CC(CNCc1ccc(OC3CCCCC3)nc1)CN2 (configuration not stated),44.13

Measurements from “University of Dundee, Small-Polar-MMV Screening Library” (2021), ChEMBL document CHEMBL3988442.